Results on two substances are retold here after US8906897B2 (Obschestvo S Ogranichennoi Otvetstvennostiyu …, priority 2009, dated 2014).

This data set can be described thus: general procedure: Fmoc solid-phase peptide synthesis; 2-chlorotrityl chloride polymer.

Substance “N^α-[6(7)-(Protohemin IX)-yl]-ArgArgTrpTrpArgPhe-OH (RRWWRF; N-terminal protohemin IX; peptide of hemin deriative)” came in with an isolated yield (whole synthesis) of 25%. Turning to “Protohemin IX 6(7)-Mono[Cyclo(Orn-Leu-D-Phe-Pro-Val)2])amide”, the conjugation yield (conjugation step) is on record as 15%.
